{"source": "the supplement of paper PMC8728848", "assay_in_all_cases": "glycan array binding signal (z-score within array); higher = stronger binding", "conditions_in_all_cases": "glycan notation: IUPAC condensed, linker removed", "key": {"[1]": {"target": "Gal(b1-4)GlcNAc(b1-2)Man(a1-6)[GlcNAc(b1-2)Man(a1-3)]Man(b1-4)GlcNAc(b1-4)GlcNAc", "summary_of_the_method": "(§1)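 Glycan array data were curated from 3228 arrays in the Consortium for Functional Glycomics database and kept only where the protein sequence was available. Glycan names were converted to IUPAC-condensed notation, and columns mapping to the same glycan were averaged. The binding signal is a within-array Z-score, averaged across arrays of the same protein sequence at different concentrations or buffers and across linkers. Negative Z-scores can be read as non-binding.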"}, "[2]": {"target": "Gal(b1-4)GlcNAc(b1-2)Man(a1-6)[Man(a1-3)]Man(b1-4)GlcNAc(b1-4)GlcNAc", "summary_of_the_method": "as §1"}, "[3]": {"target": "Gal(b1-4)GlcNAc(b1-2)[Gal(b1-4)GlcNAc(b1-4)]Man(a1-3)[Gal(b1-4)GlcNAc(b1-2)Man(a1-6)]Man(b1-4)GlcNAc(b1-4)GlcNAc", "summary_of_the_method": "as §1"}, "[4]": {"target": "Gal(b1-4)GlcNAc(b1-2)[Gal(b1-4)GlcNAc(b1-4)]Man(a1-3)[Gal(b1-4)GlcNAc(b1-2)[Gal(b1-4)GlcNAc(b1-6)]Man(a1-6)]Man(b1-4)GlcNAc(b1-4)GlcNAc", "summary_of_the_method": "as §1"}, "[5]": {"target": "Gal(b1-4)GlcNAc(b1-2)[Gal(b1-4)GlcNAc(b1-4)]Man(a1-3)[GlcNAc(b1-4)][Gal(b1-4)GlcNAc(b1-2)Man(a1-6)]Man(b1-4)GlcNAc(b1-4)GlcNAc", "summary_of_the_method": "as §1"}, "[6]": {"target": "Gal(b1-4)GlcNAc(b1-2)[Gal(b1-4)GlcNAc(b1-4)]Man(a1-3)[GlcNAc(b1-4)][Gal(b1-4)GlcNAc(b1-2)[Gal(b1-4)GlcNAc(b1-6)]Man(a1-6)]Man(b1-4)GlcNAc(b1-4)GlcNAc", "summary_of_the_method": "as §1"}, "[7]": {"target": "Gal(b1-4)GlcNAc(b1-2)[Gal(b1-4)GlcNAc(b1-6)]Man(a1-6)[Gal(b1-4)GlcNAc(b1-2)Man(a1-3)]Man(b1-4)GlcNAc(b1-4)GlcNAc", "summary_of_the_method": "as §1"}, "[8]": {"target": "Gal(b1-4)GlcNAc(b1-2)[Gal(b1-4)GlcNAc(b1-6)]Man(a1-6)[Gal(b1-4)GlcNAc(b1-2)Man(a1-3)]Man(b1-4)GlcNAc(b1-4)[Fuc(a1-6)]GlcNAc", "summary_of_the_method": "as §1"}, "[9]": {"target": "Gal(b1-4)GlcNAc(b1-2)[Gal(b1-4)GlcNAc(b1-6)]Man(a1-6)[GlcNAc(b1-4)][Gal(b1-4)GlcNAc(b1-2)Man(a1-3)]Man(b1-4)GlcNAc(b1-4)GlcNAc", "summary_of_the_method": "as §1"}, "[10]": {"target": "Gal(b1-4)GlcNAc(b1-2)[Gal(b1-4)GlcNAc(b1-6)]Man(a1-6)[GlcNAc(b1-4)][Gal(b1-4)GlcNAc(b1-2)[Gal(b1-4)GlcNAc(b1-4)]Man(a1-3)]Man(b1-4)GlcNAc(b1-4)[Fuc(a1-6)]GlcNAc", "summary_of_the_method": "as §1"}, "[11]": {"target": "Gal(b1-4)GlcNAc(b1-3)Gal(b1-3)GalNAc", "summary_of_the_method": "as §1"}, "[12]": {"target": "Gal(b1-4)GlcNAc(b1-3)Gal(b1-3)GlcNAc", "summary_of_the_method": "as §1"}, "[13]": {"target": "Gal(b1-4)GlcNAc(b1-3)Gal(b1-4)Glc", "summary_of_the_method": "as §1"}, "[14]": {"target": "Gal(b1-4)GlcNAc(b1-3)Gal(b1-4)GlcNAc", "summary_of_the_method": "as §1"}, "[15]": {"target": "Gal(b1-4)GlcNAc(b1-3)Gal(b1-4)GlcNAc(b1-2)Man(a1-3)[Gal(b1-4)GlcNAc(b1-3)Gal(b1-4)GlcNAc(b1-2)Man(a1-6)]Man(b1-4)GlcNAc(b1-4)GlcNAc", "summary_of_the_method": "as §1"}, "[16]": {"target": "Gal(b1-4)GlcNAc(b1-3)Gal(b1-4)GlcNAc(b1-2)Man(a1-3)[Gal(b1-4)GlcNAc(b1-3)Gal(b1-4)GlcNAc(b1-2)Man(a1-6)]Man(b1-4)GlcNAc(b1-4)[Fuc(a1-6)]GlcNAc", "summary_of_the_method": "as §1"}, "[17]": {"target": "Gal(b1-4)GlcNAc(b1-3)Gal(b1-4)GlcNAc(b1-2)[Gal(b1-4)GlcNAc(b1-3)Gal(b1-4)GlcNAc(b1-6)]Man(a1-6)[Gal(b1-4)GlcNAc(b1-3)Gal(b1-4)GlcNAc(b1-2)Man(a1-3)]Man(b1-4)GlcNAc(b1-4)GlcNAc", "summary_of_the_method": "as §1"}, "[18]": {"target": "Gal(b1-4)GlcNAc(b1-3)Gal(b1-4)GlcNAc(b1-2)[Gal(b1-4)GlcNAc(b1-3)Gal(b1-4)GlcNAc(b1-6)]Man(a1-6)[Gal(b1-4)GlcNAc(b1-3)Gal(b1-4)GlcNAc(b1-2)Man(a1-3)]Man(b1-4)GlcNAc(b1-4)[Fuc(a1-6)]GlcNAc", "summary_of_the_method": "as §1"}}, "note": "Some of the results follow.", "data": [{"binder": "Epa8 (Candida glabrata) (protein) MGSSHHHHHHSSGLVPRGSHMASSRALSDYPLGCSPLLGTKLTPGLSMELYEYPLDNHGIGPHCWDPAYLNPEYPRTGFESHKLIGTAQNVMSLNFEHRTQDCHVEFSNLPASFNFPDQITLTNFTMLLYGYFKPKESGRYRFHMEADDLLLMNLGAGNAFDCCAHEATRNNLGDYIAYDIWAGTRKDVEVFLEKEVFYPLRLFFNNRDGRAALDFSYYLNGATEPGTDIPELLFSLPDGESCPAYI", "values": [{"measurement": "glycan array binding signal (z-score)", "setting": "[1]", "value": -0.09}, {"measurement": "glycan array binding signal (z-score)", "setting": "[2]", "value": 1.02}, {"measurement": "glycan array binding signal (z-score)", "setting": "[3]", "value": -0.48}, {"measurement": "glycan array binding signal (z-score)", "setting": "[4]", "value": -0.119}, {"measurement": "glycan array binding signal (z-score)", "setting": "[5]", "value": 0.045}, {"measurement": "glycan array binding signal (z-score)", "setting": "[6]", "value": -1.43}, {"measurement": "glycan array binding signal (z-score)", "setting": "[7]", "value": -1.33}, {"measurement": "glycan array binding signal (z-score)", "setting": "[8]", "value": 0.139}, {"measurement": "glycan array binding signal (z-score)", "setting": "[9]", "value": 0.057}, {"measurement": "glycan array binding signal (z-score)", "setting": "[10]", "value": -0.322}, {"measurement": "glycan array binding signal (z-score)", "setting": "[11]", "value": -1.06}, {"measurement": "glycan array binding signal (z-score)", "setting": "[12]", "value": -0.498}, {"measurement": "glycan array binding signal (z-score)", "setting": "[13]", "value": 0.049}, {"measurement": "glycan array binding signal (z-score)", "setting": "[14]", "value": -0.11}, {"measurement": "glycan array binding signal (z-score)", "setting": "[15]", "value": 1.19}, {"measurement": "glycan array binding signal (z-score)", "setting": "[16]", "value": -0.085}, {"measurement": "glycan array binding signal (z-score)", "setting": "[17]", "value": 1.1}, {"measurement": "glycan array binding signal (z-score)", "setting": "[18]", "value": 0.741}]}]}
